The values that follow come from the supplement of paper PMC4635364.

The other results are listed elsewhere or left out. Single values are uncertain here, since repeats match poorly.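 Human fetal ventral-midbrain neural progenitor line ReNCell VM, differentiated without mitogens. Images stained for doublecortin (early neurons) or tyrosine hydroxylase (dopaminergic neurons) were scored by blinded raters against untreated wells (0 = no change). Repeats and both raters were averaged, and compounds averaging 2 or higher were picked as hits for retesting.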

The subject of assay [1] is ReNCell VM. Nature of the assay: neuronal differentiation score (DCX+ cell fraction vs untreated, manual image score) (score (-3 to 3)); higher = more neuronal differentiation. As to conditions: 2 uM, 2 weeks.
In assay [2] the test system is ReNCell VM. Nature of the assay: dopaminergic neuron differentiation score (TH+ cell fraction vs untreated, manual image score) (score (0 to 3)); higher = more TH+ dopaminergic neuron differentiation. As to conditions: 2 uM, 4 weeks, BDNF 10 ng/ml + GDNF 10 ng/ml.

As for `CC(Cc1ccc(O)c(O)c1)C(C)Cc1ccc(O)c(O)c1` (configuration not stated) [4,4'-(2,3-Dimethyltetramethylene)dipyrocatechol], the neuronal differentiation score with ReNCell VM [1] (library: Phytochemical) is inactive: 0. Besides, in the assay on ReNCell VM [2] (library: Phytochemical), the “dopaminergic neuron differentiation score” value is inactive: 0.

As for `CCC(=O)[C@@]1(C)[C@H](C)C[C@H]2[C@@H]3CCC4=CC(=O)C=C[C@]4(C)[C@H]3[C@@H](O)C[C@@]21C` [Rimexolone], the neuronal differentiation score with ReNCell VM [1] (library: Prestwick) is inactive: 0. For the same compound, the “dopaminergic neuron differentiation score” value with ReNCell VM [2] (library: Prestwick) is inactive: 0.

As for `CCS(=O)(=O)N1CCC[C@@H]2CN3CCc4cc(OC)ccc4[C@@H]3C[C@@H]21`, the neuronal differentiation score with ReNCell VM [1] (library: Tocriscreen) was inactive: 0. For the same compound, the “dopaminergic neuron differentiation score” value in the assay on ReNCell VM [2] (library: Tocriscreen) was inactive: 0.

In the case of `COc1cc2c(cc1OC)C1CCC3=C(C(C)OC3=O)N1CC2` (configuration not stated), in the assay with ReNCell VM [1] (library: Natural), the neuronal differentiation score was inactive: 0. Further, in the assay on ReNCell VM [2] (library: Natural), the “dopaminergic neuron differentiation score” value is inactive: 0.

In the case of `COc1c(CC(=O)c2cc3c(cc2O)OC(C)(C)C(O)C3)ccc2c1C=CC(C)(C)O2` (configuration not stated), the neuronal differentiation score in the assay with ReNCell VM [1] (library: Spectrum) was inactive: 0. For the same compound, the “dopaminergic neuron differentiation score” value with ReNCell VM [2] (library: Spectrum) was inactive: 0.

Regarding `CC(S)C(=O)NCC(=O)O` (configuration not stated), in the assay with ReNCell VM [1] (library: Spectrum), the neuronal differentiation score was inactive: 0. Further, the “dopaminergic neuron differentiation score” value in the assay with ReNCell VM [2] (library: Spectrum) was inactive: 0.

Take `Cn1c(=O)c2[nH]c(-c3ccc(S(=O)(=O)O)cc3)nc2n(C)c1=O` [8-(p-Sulfophenyl)theophylline]: in the assay on ReNCell VM [1] (library: LOPAC), the neuronal differentiation score was inactive: 0. Further, the “dopaminergic neuron differentiation score” value in the assay with ReNCell VM [2] (library: LOPAC) is inactive: 0.

`Nc1ccn([C@H]2CC[C@@H](CO)O2)c(=O)n1` [2',3'-dideoxycytidine]: in the assay with ReNCell VM [1] (library: LOPAC), the neuronal differentiation score was inactive: 0. Moreover, the “dopaminergic neuron differentiation score” value in the assay on ReNCell VM [2] (library: LOPAC) was inactive: 0.

In the case of `CC(=O)NS(=O)(=O)c1ccc(NC(=O)c2ccccc2C(=O)O)cc1`, the neuronal differentiation score in the assay on ReNCell VM [1] (library: Spectrum) was inactive: 0. The “dopaminergic neuron differentiation score” value with ReNCell VM [2] (library: Spectrum) is inactive: 0.

Regarding `CC(C)NC[C@H](O)COc1cccc2[nH]ccc12` [S(-)-Pindolol], in the assay on ReNCell VM [1] (library: LOPAC), the neuronal differentiation score is inactive: 0. Besides, in the assay with ReNCell VM [2] (library: LOPAC), the “dopaminergic neuron differentiation score” value was inactive: 0.

In the case of `Cc1oc(=O)oc1CN1CCN(c2cc3c(cc2F)c(=O)c(C(=O)O)c2n3C(C)S2)CC1` (configuration not stated), in the assay with ReNCell VM [1] (library: Spectrum), the neuronal differentiation score was inactive: 0. The “dopaminergic neuron differentiation score” value with ReNCell VM [2] (library: Spectrum) is inactive: 0.
